# Some of the results follow.
# The chains behind the UniProt entries cited, without tags or fusion partners.
# UniProt Q0JBA9, entry or part of it: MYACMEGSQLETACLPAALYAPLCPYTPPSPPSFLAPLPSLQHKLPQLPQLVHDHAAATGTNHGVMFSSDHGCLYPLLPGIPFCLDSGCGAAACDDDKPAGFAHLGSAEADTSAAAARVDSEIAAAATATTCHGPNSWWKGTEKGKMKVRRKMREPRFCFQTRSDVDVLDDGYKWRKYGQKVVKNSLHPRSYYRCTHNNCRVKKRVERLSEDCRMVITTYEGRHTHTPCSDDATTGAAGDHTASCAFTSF
# Target: OsWRKY34 (Oryza sativa, UniProt Q0JBA9 1-250)
# Test: protein-binding microarray (RPBM); PBS, 2% BSA, 51.3 ng/ul salmon testes DNA, 50 uM zinc acetate, 200 nM TF, 25 C, 1 h; high values mean tight binding
# Settings: protein: recombinant; tags: N-terminal polyhistidine and DsRed monomer fusion (pET32a); label: CyDye5-dUTP incorporated in the synthesized complementary strand; 3' TTTTT single-stranded linker to array surface; dsDNA, one strand shown
# Outline: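 The binding signal is fluorescence intensity per feature, in arbitrary units, read on an Axon 4000B scanner. Polyhistidine- and DsRed-tagged transcription factors (N-terminal fusions) from E. coli BL21-CodonPlus were purified on Ni–NTA and applied at 200 nM for 1 h at 25 °C to a double-stranded, BSA-blocked custom Agilent array in buffer with 50 µM zinc acetate.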
row,Sequence,binding signal
1,TTATTCGTGCGTGCATTCATTGAAACTATATCGTTCATAACGGAGTCACCTAGTGCAG,8030 fluorescence intensity (a.u.)
2,AAACGCCATCTCCACCGTCGCCTCGCCTCGCCTCCACCTCCGGAGTCACCTAGTGCAG,9430 fluorescence intensity (a.u.)
3,TTCCTGCTCTGTCCGTGCTCGACTCAATTCATTGTCAACCCGGAGTCACCTAGTGCAG,8690 fluorescence intensity (a.u.)
4,ACCTACTCTTCACTTATTTGGTTATTCCCAATCTCTCTCTCGGAGTCACCTAGTGCAG,8690 fluorescence intensity (a.u.)
5,TTTCCTAAATATTGACTTTCTGTTGCCTGGTTGGTTTGAGCGGAGTCACCTAGTGCAG,9720 fluorescence intensity (a.u.)
6,CCTGTCATACACACACAACTTTTTAGTCACATCATCTCCACGGAGTCACCTAGTGCAG,12100 fluorescence intensity (a.u.)
7,CAAGTTATTGACTTTTGGTCATGATGTTACTATTCATCTTCGGAGTCACCTAGTGCAG,9120 fluorescence intensity (a.u.)
8,TGACTGAATAGGATATACATATACTCTCCTTTCTTTTATTCGGAGTCACCTAGTGCAG,8760 fluorescence intensity (a.u.)
9,AGGGTGGTTTTTAGTGACATGGTTCGTTGACCTAATCCAACGGAGTCACCTAGTGCAG,8950 fluorescence intensity (a.u.)
10,CTACCACCCTCACTCGCGAGCTCGGCTCAGCTCAGCTCACCGGAGTCACCTAGTGCAG,8060 fluorescence intensity (a.u.)
11,CCTTCTCAAAGGGTGTGTTTTGTCCATTTGTAAAGTTGTACGGAGTCACCTAGTGCAG,8060 fluorescence intensity (a.u.)
12,CCCGCGCCACCAACTTCGCCTCGGCGAGGCAAACCCATTTCGGAGTCACCTAGTGCAG,8330 fluorescence intensity (a.u.)
13,CATCACCCCAATGCAGGTCTAGTTAGTGTTTGTAGCTTGTCGGAGTCACCTAGTGCAG,8060 fluorescence intensity (a.u.)
14,ACCGCATCGCTGCCTGCCGCCGAGAGGCGCCCCTCATGAACGGAGTCACCTAGTGCAG,9050 fluorescence intensity (a.u.)
15,ACCCGTAACTCGTGGATCCCATGTCAGCTACCCACGTTTTCGGAGTCACCTAGTGCAG,10300 fluorescence intensity (a.u.)
16,CGCCGCCGCCCGCCATCCGCCGTTGGCCACCCCGCCCCGTCGGAGTCACCTAGTGCAG,10000 fluorescence intensity (a.u.)
17,CTCTAAAATCCATCCTCTTCTTTTTCTTTTTCTTTTTTATCGGAGTCACCTAGTGCAG,8410 fluorescence intensity (a.u.)
18,GATGGTTTGTGCCCTTTTCCCCTTAGCATAGCTGTGTATTCGGAGTCACCTAGTGCAG,9980 fluorescence intensity (a.u.)
19,CTCACGTTGCCCACTCCCTCCCCTGGACGCGTCGCGCTGCCGGAGTCACCTAGTGCAG,10000 fluorescence intensity (a.u.)
20,AGACCAGAACATCAGCCCGCTACCATATACAAGTGCATAGCGGAGTCACCTAGTGCAG,9460 fluorescence intensity (a.u.)
21,TTCGAATATCCATGACTCGCTTGATCTCCACCGCCCGTTTCGGAGTCACCTAGTGCAG,8380 fluorescence intensity (a.u.)

row,Sequence,binding signal
1,TACTCACCTTTTTCACTACATTGTGAATGTCCTAATGACTCGGAGTCACCTAGTGCAG,9260 fluorescence intensity (a.u.)
2,ATCTGCCTAACGTAAAATGCACTATATTCTGTTTTGTTCTCGGAGTCACCTAGTGCAG,8370 fluorescence intensity (a.u.)
3,GTTCCTGTACTCTTTACCATGCCGAAAGCGACCACGTTGACGGAGTCACCTAGTGCAG,9850 fluorescence intensity (a.u.)
4,CATGTAATTCTCTTCACTTTTGCTTGTTTGGGTTGTGAAACGGAGTCACCTAGTGCAG,10100 fluorescence intensity (a.u.)
5,TGTATGTACGTACGTATGTACTGTATTCATTAGGGTGGGACGGAGTCACCTAGTGCAG,9030 fluorescence intensity (a.u.)
6,CATTGTAGCACTGACGTTTAACACACTTTCAATTCGAATCCGGAGTCACCTAGTGCAG,8180 fluorescence intensity (a.u.)
7,TTTATTTCATCTCCTACGTTTTCATTTGCCATGTGCGAACCGGAGTCACCTAGTGCAG,10200 fluorescence intensity (a.u.)
8,TTTTGTCCCGGCAATTTTTCTGGGCATCCATGGCCACTGACGGAGTCACCTAGTGCAG,8540 fluorescence intensity (a.u.)
9,GGTGGGTGAACGCGAGCGCTCGTCCATTAGCTTTTTCGAACGGAGTCACCTAGTGCAG,8720 fluorescence intensity (a.u.)
10,CTCCGTCCGCCACCCTTGCTGTGTTTCTTTCAAAAAAAAACGGAGTCACCTAGTGCAG,10800 fluorescence intensity (a.u.)
11,GGCCCAGCCCAGCACGGTCCACTACCTTGTCGCCGCGCGGCGGAGTCACCTAGTGCAG,9120 fluorescence intensity (a.u.)
12,CATCGACCGTACTATTCGTGGCACGTCCACCAACAAATATCGGAGTCACCTAGTGCAG,8740 fluorescence intensity (a.u.)
13,GGTAGTGATATTATGATAGAGGATCCTCACCCCTGTCTAACGGAGTCACCTAGTGCAG,8250 fluorescence intensity (a.u.)
14,TTGGTCATATCTCCATCCGGGTTTGATTAAACTATATAAACGGAGTCACCTAGTGCAG,8060 fluorescence intensity (a.u.)
15,GGGGCATCTGTTTCTGGTAATGGTGGAACACTATAATATCCGGAGTCACCTAGTGCAG,10300 fluorescence intensity (a.u.)
16,ACTCCGTATTATCATGGTACATGCTCTATTCTCTCTGTATCGGAGTCACCTAGTGCAG,8270 fluorescence intensity (a.u.)
17,TTTTATGTATGTCGTTTTCGCGTGGCTGCCCTCAACCAACCGGAGTCACCTAGTGCAG,8280 fluorescence intensity (a.u.)
18,GTCTCTACCTCTCCCTTTCTCTCTCGATCTCTCCAGTCTCCGGAGTCACCTAGTGCAG,8020 fluorescence intensity (a.u.)
19,TAACGTTTTATTACTGACATTTTTGTTACTTCTTGATTTACGGAGTCACCTAGTGCAG,8840 fluorescence intensity (a.u.)
20,CAACTTAACCAAATTTACTGTACGTTGACCACCAGCTAGCCGGAGTCACCTAGTGCAG,9210 fluorescence intensity (a.u.)
21,TCTTCATATCAAACAGTCCACTACTTGTGCATTCATATACCGGAGTCACCTAGTGCAG,12500 fluorescence intensity (a.u.)

# Copied from the list:
# Value of CATGTAATTCTCTTCACTTTTGCTTGTTTGGGTTGTGAAACGGAGTCACCTAGTGCAG under binding signal: 10100 fluorescence intensity (a.u.)
# Value of CTACCACCCTCACTCGCGAGCTCGGCTCAGCTCAGCTCACCGGAGTCACCTAGTGCAG under binding signal: 8060 fluorescence intensity (a.u.)
# Value of TTTCCTAAATATTGACTTTCTGTTGCCTGGTTGGTTTGAGCGGAGTCACCTAGTGCAG under binding signal: 9720 fluorescence intensity (a.u.)
